Data published in the supplement of paper PMC6411743.
± gives the standard deviation of the averaged measurements. The list shows a part of the results.

Chains of the proteins cited; added tags and fusions are not shown. Lines headed by an entry give the natural chain unless they say otherwise; changes in a name come on top.
UniProt Q9HBM1: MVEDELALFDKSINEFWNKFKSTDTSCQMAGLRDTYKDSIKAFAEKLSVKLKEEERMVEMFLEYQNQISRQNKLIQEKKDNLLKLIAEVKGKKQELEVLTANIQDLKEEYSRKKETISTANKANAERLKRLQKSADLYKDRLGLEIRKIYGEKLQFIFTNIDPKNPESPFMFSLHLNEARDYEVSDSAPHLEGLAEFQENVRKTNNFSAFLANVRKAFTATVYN
UniProt Q9H4E7, whole entry: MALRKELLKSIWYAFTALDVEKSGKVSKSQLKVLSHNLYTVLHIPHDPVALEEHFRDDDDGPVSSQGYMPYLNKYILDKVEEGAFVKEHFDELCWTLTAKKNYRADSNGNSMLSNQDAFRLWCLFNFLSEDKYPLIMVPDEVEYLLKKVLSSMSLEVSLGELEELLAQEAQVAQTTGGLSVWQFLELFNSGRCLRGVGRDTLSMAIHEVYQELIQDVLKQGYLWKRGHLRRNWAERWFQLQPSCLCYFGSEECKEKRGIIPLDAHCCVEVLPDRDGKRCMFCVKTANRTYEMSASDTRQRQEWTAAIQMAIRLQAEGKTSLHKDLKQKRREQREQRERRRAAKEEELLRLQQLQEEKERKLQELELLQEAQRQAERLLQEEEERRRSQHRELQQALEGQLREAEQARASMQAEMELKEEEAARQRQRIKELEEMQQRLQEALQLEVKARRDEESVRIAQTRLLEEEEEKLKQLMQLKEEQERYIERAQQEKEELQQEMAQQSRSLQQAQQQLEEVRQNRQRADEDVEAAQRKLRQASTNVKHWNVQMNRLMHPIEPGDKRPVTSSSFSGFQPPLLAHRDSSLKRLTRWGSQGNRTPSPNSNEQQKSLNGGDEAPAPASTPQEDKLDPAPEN
UniProt Q9NP66: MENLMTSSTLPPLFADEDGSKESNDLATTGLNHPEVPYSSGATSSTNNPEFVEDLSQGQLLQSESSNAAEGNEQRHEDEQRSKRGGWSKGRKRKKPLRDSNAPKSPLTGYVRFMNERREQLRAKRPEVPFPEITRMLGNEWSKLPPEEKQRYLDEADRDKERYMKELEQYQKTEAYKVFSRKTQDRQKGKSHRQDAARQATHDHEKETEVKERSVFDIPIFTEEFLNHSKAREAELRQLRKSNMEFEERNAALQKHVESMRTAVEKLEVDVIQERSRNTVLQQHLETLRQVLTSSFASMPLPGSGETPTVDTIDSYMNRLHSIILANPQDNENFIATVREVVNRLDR
UniProt Q9NP77: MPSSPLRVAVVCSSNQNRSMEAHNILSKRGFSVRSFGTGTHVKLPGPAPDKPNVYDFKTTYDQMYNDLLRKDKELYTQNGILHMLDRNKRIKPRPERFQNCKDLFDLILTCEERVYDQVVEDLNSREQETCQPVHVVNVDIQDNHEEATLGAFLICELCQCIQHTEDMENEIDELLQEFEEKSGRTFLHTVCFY
UniProt Q9HC52: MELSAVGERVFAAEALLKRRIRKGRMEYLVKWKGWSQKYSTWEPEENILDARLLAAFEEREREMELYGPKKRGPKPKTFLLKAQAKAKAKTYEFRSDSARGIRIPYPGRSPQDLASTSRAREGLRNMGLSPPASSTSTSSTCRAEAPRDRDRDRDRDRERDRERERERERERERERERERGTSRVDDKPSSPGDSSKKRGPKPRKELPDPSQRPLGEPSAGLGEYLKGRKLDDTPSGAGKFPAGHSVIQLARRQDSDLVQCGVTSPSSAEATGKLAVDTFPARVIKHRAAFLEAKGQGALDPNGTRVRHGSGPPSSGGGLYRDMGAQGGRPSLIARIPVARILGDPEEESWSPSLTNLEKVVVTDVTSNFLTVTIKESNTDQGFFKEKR
UniProt Q9H019: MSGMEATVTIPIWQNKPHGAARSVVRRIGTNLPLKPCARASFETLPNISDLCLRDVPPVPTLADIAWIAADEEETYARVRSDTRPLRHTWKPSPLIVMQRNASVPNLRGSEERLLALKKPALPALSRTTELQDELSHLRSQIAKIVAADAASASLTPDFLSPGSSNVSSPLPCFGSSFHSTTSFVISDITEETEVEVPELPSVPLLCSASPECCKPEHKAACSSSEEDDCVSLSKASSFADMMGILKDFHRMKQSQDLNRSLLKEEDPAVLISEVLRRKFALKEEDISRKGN
UniProt Q9H5Q4: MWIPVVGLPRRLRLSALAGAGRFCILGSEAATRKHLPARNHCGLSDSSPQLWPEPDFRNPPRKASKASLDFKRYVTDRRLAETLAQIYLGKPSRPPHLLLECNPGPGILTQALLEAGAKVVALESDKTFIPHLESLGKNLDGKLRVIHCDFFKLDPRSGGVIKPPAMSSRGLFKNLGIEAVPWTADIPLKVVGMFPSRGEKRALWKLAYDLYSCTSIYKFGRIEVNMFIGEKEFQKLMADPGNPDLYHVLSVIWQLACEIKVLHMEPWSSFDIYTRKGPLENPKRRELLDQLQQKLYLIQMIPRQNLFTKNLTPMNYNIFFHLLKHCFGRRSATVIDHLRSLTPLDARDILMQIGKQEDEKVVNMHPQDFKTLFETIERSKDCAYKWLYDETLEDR
UniProt Q9NPG3, whole entry: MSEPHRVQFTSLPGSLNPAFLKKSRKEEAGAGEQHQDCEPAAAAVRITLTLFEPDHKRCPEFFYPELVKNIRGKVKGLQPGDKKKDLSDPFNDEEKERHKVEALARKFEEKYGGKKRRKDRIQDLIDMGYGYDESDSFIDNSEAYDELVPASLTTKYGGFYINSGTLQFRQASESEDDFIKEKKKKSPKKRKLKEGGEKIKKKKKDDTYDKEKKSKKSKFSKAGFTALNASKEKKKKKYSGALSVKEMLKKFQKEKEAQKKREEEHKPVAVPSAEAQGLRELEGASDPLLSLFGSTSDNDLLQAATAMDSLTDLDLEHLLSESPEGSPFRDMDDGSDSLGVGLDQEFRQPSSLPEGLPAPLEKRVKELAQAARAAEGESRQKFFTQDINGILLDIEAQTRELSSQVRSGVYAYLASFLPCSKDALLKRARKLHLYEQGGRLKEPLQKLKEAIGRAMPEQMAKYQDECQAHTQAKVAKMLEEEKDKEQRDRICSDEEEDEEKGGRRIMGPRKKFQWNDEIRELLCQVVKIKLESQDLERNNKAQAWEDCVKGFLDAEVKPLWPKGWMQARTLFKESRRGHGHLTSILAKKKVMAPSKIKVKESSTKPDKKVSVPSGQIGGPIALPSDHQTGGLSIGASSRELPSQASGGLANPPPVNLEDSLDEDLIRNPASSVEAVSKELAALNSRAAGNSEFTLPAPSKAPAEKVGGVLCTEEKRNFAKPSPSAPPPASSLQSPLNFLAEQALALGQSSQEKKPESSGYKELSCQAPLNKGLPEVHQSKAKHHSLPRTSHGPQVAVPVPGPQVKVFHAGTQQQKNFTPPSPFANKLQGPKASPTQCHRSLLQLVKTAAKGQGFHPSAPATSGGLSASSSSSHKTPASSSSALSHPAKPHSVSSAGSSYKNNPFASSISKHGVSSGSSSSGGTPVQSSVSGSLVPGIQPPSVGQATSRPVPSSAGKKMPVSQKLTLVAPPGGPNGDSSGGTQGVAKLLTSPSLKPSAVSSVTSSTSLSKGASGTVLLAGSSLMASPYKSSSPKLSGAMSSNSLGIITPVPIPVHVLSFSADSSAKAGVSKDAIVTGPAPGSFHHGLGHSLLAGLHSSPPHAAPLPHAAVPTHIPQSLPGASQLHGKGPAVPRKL
UniProt Q9H0C8: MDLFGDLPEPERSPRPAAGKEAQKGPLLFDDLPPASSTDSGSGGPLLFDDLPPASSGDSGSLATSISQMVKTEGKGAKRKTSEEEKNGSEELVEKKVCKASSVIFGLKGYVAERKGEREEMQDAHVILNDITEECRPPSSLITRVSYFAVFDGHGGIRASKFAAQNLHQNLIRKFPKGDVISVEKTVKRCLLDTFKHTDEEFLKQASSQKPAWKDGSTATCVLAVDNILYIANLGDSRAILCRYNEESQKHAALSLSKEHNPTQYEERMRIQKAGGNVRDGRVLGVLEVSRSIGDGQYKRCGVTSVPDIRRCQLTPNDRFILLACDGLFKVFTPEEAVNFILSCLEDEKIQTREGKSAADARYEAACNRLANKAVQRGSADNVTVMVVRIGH
UniProt Q9H6E4: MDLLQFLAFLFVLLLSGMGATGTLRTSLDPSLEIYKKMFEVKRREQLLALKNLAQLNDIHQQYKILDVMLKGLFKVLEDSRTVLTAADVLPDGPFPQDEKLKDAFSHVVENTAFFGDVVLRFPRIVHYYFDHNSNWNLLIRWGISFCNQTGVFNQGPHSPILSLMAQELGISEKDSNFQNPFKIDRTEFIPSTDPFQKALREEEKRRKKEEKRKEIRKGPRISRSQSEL
UniProt Q9NPJ3: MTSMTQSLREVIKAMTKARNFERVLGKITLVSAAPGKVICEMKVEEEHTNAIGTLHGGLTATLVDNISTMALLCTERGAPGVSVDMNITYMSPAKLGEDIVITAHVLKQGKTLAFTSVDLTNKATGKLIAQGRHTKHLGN
UniProt Q9GZP4: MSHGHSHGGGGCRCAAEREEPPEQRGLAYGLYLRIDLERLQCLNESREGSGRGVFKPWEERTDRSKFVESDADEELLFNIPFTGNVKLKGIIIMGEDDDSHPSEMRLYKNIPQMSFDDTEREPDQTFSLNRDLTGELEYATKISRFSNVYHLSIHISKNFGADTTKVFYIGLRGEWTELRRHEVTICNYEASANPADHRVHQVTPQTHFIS
UniProt Q9H8E8: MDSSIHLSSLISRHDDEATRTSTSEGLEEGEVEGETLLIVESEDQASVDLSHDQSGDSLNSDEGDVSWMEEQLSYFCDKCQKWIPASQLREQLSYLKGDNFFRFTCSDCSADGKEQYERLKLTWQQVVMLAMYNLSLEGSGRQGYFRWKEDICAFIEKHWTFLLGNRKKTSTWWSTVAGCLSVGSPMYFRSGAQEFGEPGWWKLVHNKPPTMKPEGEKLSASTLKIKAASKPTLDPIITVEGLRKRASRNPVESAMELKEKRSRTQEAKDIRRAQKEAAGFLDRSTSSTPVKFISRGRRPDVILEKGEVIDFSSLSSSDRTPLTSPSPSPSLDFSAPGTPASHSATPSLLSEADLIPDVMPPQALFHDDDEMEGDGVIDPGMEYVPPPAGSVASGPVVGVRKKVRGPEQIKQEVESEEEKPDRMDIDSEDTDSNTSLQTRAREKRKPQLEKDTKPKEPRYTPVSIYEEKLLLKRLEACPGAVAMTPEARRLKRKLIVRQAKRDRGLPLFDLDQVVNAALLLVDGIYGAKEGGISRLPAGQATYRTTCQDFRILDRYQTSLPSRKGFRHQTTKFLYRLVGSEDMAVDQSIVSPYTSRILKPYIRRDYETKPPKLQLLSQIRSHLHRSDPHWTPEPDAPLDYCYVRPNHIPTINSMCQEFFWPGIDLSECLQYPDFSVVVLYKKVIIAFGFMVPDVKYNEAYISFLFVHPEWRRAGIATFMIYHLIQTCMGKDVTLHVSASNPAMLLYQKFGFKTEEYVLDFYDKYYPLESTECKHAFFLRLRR
UniProt Q9HAS0: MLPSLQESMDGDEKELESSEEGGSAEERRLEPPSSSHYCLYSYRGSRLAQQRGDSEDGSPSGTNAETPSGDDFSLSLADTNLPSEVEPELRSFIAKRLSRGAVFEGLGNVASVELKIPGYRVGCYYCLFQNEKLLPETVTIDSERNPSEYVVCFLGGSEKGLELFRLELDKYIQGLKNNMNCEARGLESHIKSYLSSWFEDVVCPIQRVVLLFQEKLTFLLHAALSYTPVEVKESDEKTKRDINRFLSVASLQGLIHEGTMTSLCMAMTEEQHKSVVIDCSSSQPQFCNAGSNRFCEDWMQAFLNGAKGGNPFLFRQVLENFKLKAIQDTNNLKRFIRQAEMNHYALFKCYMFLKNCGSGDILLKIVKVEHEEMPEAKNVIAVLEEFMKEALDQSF
UniProt Q9NQT4, whole entry: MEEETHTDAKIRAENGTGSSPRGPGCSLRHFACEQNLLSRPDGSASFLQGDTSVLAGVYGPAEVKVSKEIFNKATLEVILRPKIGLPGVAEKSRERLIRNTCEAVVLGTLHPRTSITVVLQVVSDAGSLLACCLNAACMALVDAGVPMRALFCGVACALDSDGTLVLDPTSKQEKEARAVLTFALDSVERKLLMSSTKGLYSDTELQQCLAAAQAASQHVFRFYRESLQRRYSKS
UniProt Q9NQZ2: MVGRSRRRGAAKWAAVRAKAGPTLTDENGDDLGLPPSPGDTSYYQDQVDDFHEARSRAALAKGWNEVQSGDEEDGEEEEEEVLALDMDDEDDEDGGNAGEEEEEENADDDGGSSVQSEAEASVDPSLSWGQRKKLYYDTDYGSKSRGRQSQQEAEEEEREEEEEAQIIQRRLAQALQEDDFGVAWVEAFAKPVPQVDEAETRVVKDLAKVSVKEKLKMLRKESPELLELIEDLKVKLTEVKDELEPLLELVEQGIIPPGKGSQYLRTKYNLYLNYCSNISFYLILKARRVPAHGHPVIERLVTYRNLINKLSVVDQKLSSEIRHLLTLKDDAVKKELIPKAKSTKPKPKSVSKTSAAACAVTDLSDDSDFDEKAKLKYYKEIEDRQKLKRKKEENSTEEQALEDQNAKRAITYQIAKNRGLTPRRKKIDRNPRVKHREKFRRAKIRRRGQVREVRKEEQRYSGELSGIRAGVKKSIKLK

Compound: Nc1nc2c(ncn2[C@@H]2O[C@H](COP(=O)(O)OP(=O)(O)OP(=O)(O)O)[C@@H](O)[C@H]2O)c(=O)[nH]1 [guanosine triphosphate]
Test: NP40-soluble protein abundance relative to vehicle (solubility fold change) (ratio); higher = more soluble protein in presence of GTP
Procedure, shortened: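 Data come from three independent experiments in which Dounce-homogenised Jurkat crude lysate was treated at eight concentrations from 0.1 to 10 mM. Treatment ran 10 min at room temperature and then 3 min at 37 °C, after which 0.8% NP40 and benzonase were added for 60 min at 4 °C before ultracentrifugation. The supernatant underwent TMT labelling and LC-MS/MS, and vsn-normalised intensities were expressed as fold change against the detergent-processed vehicle in each replicate.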

Target | NP40-soluble protein abundance (concentration: 0.1mM) | NP40-soluble protein abundance (concentration: 0.5mM) | NP40-soluble protein abundance (concentration: 1mM) | NP40-soluble protein abundance (concentration: 2mM) | NP40-soluble protein abundance (concentration: 4mM) | NP40-soluble protein abundance (concentration: 6mM) | NP40-soluble protein abundance (concentration: 8mM) | NP40-soluble protein abundance (concentration: 10mM)
SPC25 (UniProt Q9HBM1) | 0.948 ± 0.016 | 0.858 ± 0.07 | 0.926 ± 0.085 | 0.897 ± 0.053 | 0.899 ± 0.038 | 0.875 ± 0.045 | 0.869 ± 0.085 | 0.831 ± 0.056
UPF2 (UniProt Q9HAU5) | 0.959 ± 0.048 | 1 ± 0.043 | 0.968 ± 0.03 | 0.979 ± 0.034 | 0.966 ± 0.033 | 0.978 ± 0.018 | 0.983 ± 0.047 | 0.987 ± 0.059
UniProt Q9GZT3 and related entries | 0.885 ± 0.11 | 0.866 ± 0.077 | 1 ± 0.13 | 1.01 ± 0.094 | 0.961 ± 0.066 | 0.996 ± 0.076 | 0.957 ± 0.15 | 1.09 ± 0.17
DEF6 (UniProt Q9H4E7) | 0.989 ± 0.052 | 0.975 ± 0.053 | 0.954 ± 0.059 | 0.92 ± 0.085 | 0.909 ± 0.081 | 0.919 ± 0.077 | 0.926 ± 0.054 | 0.907 ± 0.068
UniProt Q9H0W8 | 0.962 ± 0.0098 | 1.03 ± 0.07 | 0.992 ± 0.073 | 1.07 ± 0.058 | 1.009 ± 0.0049 | 1.01 ± 0.084 | 0.986 ± 0.032 | 0.963 ± 0.053
UniProt Q9C0B5 and related entries | 1.02 ± 0.049 | 0.949 ± 0.024 | 0.96 ± 0.018 | 0.938 ± 0.012 | 0.903 ± 0.018 | 0.909 ± 0.019 | 1.02 ± 0.03 | 0.997 ± 0.029
HMG20A (UniProt Q9NP66) | 0.922 ± 0.12 | 0.95 ± 0.12 | 1.15 ± 0.14 | 1.21 ± 0.04 | 1.23 ± 0.11 | 1.29 ± 0.12 | 1.31 ± 0.21 | 1.6 ± 0.35
SSU72 (UniProt Q9NP77) | 0.943 ± 0.09 | 0.936 ± 0.028 | 0.995 ± 0.091 | 0.962 ± 0.042 | 0.974 ± 0.14 | 0.912 ± 0.077 | 0.947 ± 0.19 | 0.913 ± 0.052
CBX8 (UniProt Q9HC52) | 1.01 ± 0.04 | 1.04 ± 0.048 | 1.13 ± 0.013 | 1.24 ± 0.14 | 1.42 ± 0.15 | 1.61 ± 0.15 | 1.74 ± 0.17 | 1.86 ± 0.23
UniProt Q9H019 and related entries | 0.943 ± 0.079 | 0.915 ± 0.11 | 0.944 ± 0.13 | 0.902 ± 0.12 | 0.924 ± 0.09 | 0.903 ± 0.08 | 0.91 ± 0.099 | 0.927 ± 0.088
TFB2M (UniProt Q9H5Q4) | 1.01 ± 0.021 | 1.01 ± 0.032 | 0.983 ± 0.014 | 0.979 ± 0.044 | 1.01 ± 0.019 | 0.945 ± 0.029 | 0.961 ± 0.023 | 0.943 ± 0.061
UniProt Q9NPG3 and related entries | 1.01 ± 0.086 | 1.06 ± 0.091 | 1.03 ± 0.028 | 1.09 ± 0.044 | 1.1 ± 0.059 | 1.1 ± 0.033 | 1.17 ± 0.17 | 1.23 ± 0.068
UniProt Q9HCE5 | 0.962 ± 0.02 | 0.998 ± 0.04 | 0.889 ± 0.012 | 0.889 ± 0.022 | 0.857 ± 0.033 | 0.896 ± 0.044 | 0.891 ± 0.039 | 0.847 ± 0.03
ILKAP (UniProt Q9H0C8) | 0.959 ± 0.034 | 0.95 ± 0.023 | 0.905 ± 0.049 | 0.904 ± 0.058 | 0.88 ± 0.058 | 0.897 ± 0.048 | 0.87 ± 0.049 | 0.869 ± 0.065
ACBD3 (UniProt Q9H3P7) | 1.02 ± 0.024 | 1.02 ± 0.027 | 0.972 ± 0.059 | 0.944 ± 0.027 | 0.945 ± 0.029 | 0.915 ± 0.053 | 0.912 ± 0.096 | 0.861 ± 0.089
CCDC134 (UniProt Q9H6E4) | 0.934 ± 0.071 | 0.893 ± 0.1 | 0.944 ± 0.089 | 0.911 ± 0.087 | 0.905 ± 0.077 | 0.881 ± 0.084 | 0.869 ± 0.1 | 0.86 ± 0.091
DDX21 (UniProt Q9NR30) | 1.11 ± 0.027 | 1.1 ± 0.048 | 1.18 ± 0.026 | 1.32 ± 0.019 | 1.56 ± 0.018 | 1.82 ± 0.028 | 2.13 ± 0.038 | 2.698 ± 0.024
WDR12 (UniProt Q9GZL7) | 1.05 ± 0.037 | 1.05 ± 0.044 | 0.954 ± 0.03 | 0.978 ± 0.081 | 0.949 ± 0.065 | 0.939 ± 0.051 | 0.92 ± 0.056 | 0.9 ± 0.1
UniProt Q9NPJ3 and related entries | 0.914 ± 0.12 | 0.914 ± 0.074 | 0.852 ± 0.076 | 0.821 ± 0.058 | 0.783 ± 0.048 | 0.818 ± 0.053 | 0.785 ± 0.076 | 0.767 ± 0.056
UniProt Q9H2U1 and related entries | 1.02 ± 0.027 | 1.07 ± 0.061 | 0.998 ± 0.044 | 1.03 ± 0.043 | 0.988 ± 0.042 | 1.03 ± 0.056 | 1.02 ± 0.04 | 0.9909 ± 0.00082
UniProt Q9GZP4 | 1.05 ± 0.015 | 1.03 ± 0.048 | 0.943 ± 0.071 | 0.944 ± 0.089 | 0.899 ± 0.08 | 0.911 ± 0.11 | 0.872 ± 0.06 | 0.848 ± 0.09
SCPEP1 (UniProt Q9HB40) | 0.885 ± 0.027 | 0.846 ± 0.056 | 0.965 ± 0.029 | 0.941 ± 0.051 | 0.937 ± 0.054 | 0.932 ± 0.06 | 0.873 ± 0.054 | 0.912 ± 0.081
UniProt Q9H8E8 and related entries | 1.019 ± 0.0094 | 1.03 ± 0.12 | 1.12 ± 0.064 | 1.05 ± 0.17 | 1.01 ± 0.14 | 1.08 ± 0.091 | 1 ± 0.09 | 0.969 ± 0.094
C17orf75 (UniProt Q9HAS0) | 1.06 ± 0.095 | 1.01 ± 0.15 | 1.02 ± 0.11 | 1.02 ± 0.14 | 1.06 ± 0.17 | 1.01 ± 0.18 | 1.02 ± 0.12 | 1.05 ± 0.11
UniProt Q9H7Z6 | 1.05 ± 0.029 | 1.06 ± 0.025 | 1.07 ± 0.015 | 1.07 ± 0.038 | 1.131 ± 0.0091 | 1.12 ± 0.04 | 1.17 ± 0.017 | 1.12 ± 0.0089
ATG5 (UniProt Q9H1Y0) | 1.02 ± 0.018 | 0.986 ± 0.015 | 0.952 ± 0.043 | 0.946 ± 0.056 | 0.941 ± 0.063 | 0.948 ± 0.055 | 0.952 ± 0.062 | 0.952 ± 0.073
SNRK (UniProt Q9NRH2) | 1.06 ± 0.025 | 1.02 ± 0.011 | 0.925 ± 0.049 | 0.98327 ± 0.00056 | 0.941 ± 0.02 | 0.854 ± 0.082 | 1.01 ± 0.036 | 0.932 ± 0.011
EXOSC5 (UniProt Q9NQT4) | 1.08 ± 0.037 | 1.01 ± 0.087 | 1.03 ± 0.051 | 1.17 ± 0.085 | 1.22 ± 0.055 | 1.3 ± 0.037 | 1.34 ± 0.1 | 1.33 ± 0.085
UTP3 (UniProt Q9NQZ2) | 0.964 ± 0.037 | 0.963 ± 0.031 | 0.987 ± 0.075 | 1.04 ± 0.067 | 1.01 ± 0.097 | 1.03 ± 0.083 | 1.02 ± 0.098 | 1.02 ± 0.06
QRSL1 (UniProt Q9H0R6) | 1.06 ± 0.05 | 1 ± 0.028 | 1.06 ± 0.079 | 0.998 ± 0.03 | 1.02 ± 0.074 | 0.978 ± 0.032 | 1.05 ± 0.057 | 0.974 ± 0.046

An excerpt of these results, with tabs:
Target	NP40-soluble protein abundance (concentration: 0.1mM)	NP40-soluble protein abundance (concentration: 0.5mM)	NP40-soluble protein abundance (concentration: 1mM)	NP40-soluble protein abundance (concentration: 2mM)	NP40-soluble protein abundance (concentration: 4mM)	NP40-soluble protein abundance (concentration: 6mM)	NP40-soluble protein abundance (concentration: 8mM)	NP40-soluble protein abundance (concentration: 10mM)
SPC25 (UniProt Q9HBM1)	0.948 ± 0.016	0.858 ± 0.07	0.926 ± 0.085	0.897 ± 0.053	0.899 ± 0.038	0.875 ± 0.045	0.869 ± 0.085	0.831 ± 0.056
UPF2 (UniProt Q9HAU5)	0.959 ± 0.048	1 ± 0.043	0.968 ± 0.03	0.979 ± 0.034	0.966 ± 0.033	0.978 ± 0.018	0.983 ± 0.047	0.987 ± 0.059
